The values are deposited in ChEMBL (CHEMBL3988442, “University of Dundee, Small-Polar-MMV Screening Library” (2021)).

By UniProt entry, the sequences of proteins in these tests, tags left out.
UniProt E9BF75, entry or part of it: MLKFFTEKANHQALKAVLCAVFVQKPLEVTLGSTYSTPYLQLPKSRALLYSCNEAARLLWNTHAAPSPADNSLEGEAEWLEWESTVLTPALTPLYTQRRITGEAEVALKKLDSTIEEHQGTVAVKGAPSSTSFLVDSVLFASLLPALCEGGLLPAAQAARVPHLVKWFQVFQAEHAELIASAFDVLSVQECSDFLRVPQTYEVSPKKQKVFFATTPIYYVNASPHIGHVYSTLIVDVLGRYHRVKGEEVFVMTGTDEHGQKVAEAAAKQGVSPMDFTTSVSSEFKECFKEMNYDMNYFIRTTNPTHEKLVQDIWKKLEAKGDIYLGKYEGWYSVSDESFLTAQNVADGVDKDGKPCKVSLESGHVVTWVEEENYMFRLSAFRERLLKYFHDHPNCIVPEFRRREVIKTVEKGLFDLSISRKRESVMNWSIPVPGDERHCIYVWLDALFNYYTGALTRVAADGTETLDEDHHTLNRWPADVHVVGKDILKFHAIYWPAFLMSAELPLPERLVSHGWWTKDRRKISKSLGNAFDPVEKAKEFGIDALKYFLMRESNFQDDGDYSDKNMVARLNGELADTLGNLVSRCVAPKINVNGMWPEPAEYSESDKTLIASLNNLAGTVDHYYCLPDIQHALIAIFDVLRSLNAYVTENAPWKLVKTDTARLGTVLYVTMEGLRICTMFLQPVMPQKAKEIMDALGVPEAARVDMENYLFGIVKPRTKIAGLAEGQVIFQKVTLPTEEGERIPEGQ

Mtb heat-shock: 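Assay on Mycobacterium tuberculosis, filed only as a heat shock assay from Cornell; the read-out is not stated. The concentration is filed as 10 mM, unlikely as a test dose, so the dose is not known. Higher reads as stronger inhibition (inferred: compounds with an IC50 in retests scored well above the rest). Size under these conditions: about 69,000 compounds, about 930 of them at 50% or above in at least one test.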
LdMetRS: 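Methionyl-tRNA synthetase (putative), Leishmania donovani (UniProt E9BF75). Primary screen of methionyl-tRNA synthetase; the read-out is not stated. The test concentration is not given. The values are filed as inhibition. Size under these conditions: about 68,000 compounds, about 24 of them at 50% or above in at least one test.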
Mtb growth Cornell: 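Whole-cell assay for inhibitors of Mycobacterium tuberculosis growth, labelled Cornell in the record; the read-out is not stated. The concentration is filed as 10 mM, unlikely as a test dose, so the dose is not known. Higher means stronger inhibition (inferred from two other growth screens of the library). Of about 53,000 compounds tested this way, about 900 (1.7%) reached 50% or more in at least one test.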

All values are in %. The controls that fix the scale are not given in the record; negative values are as filed. Compounds were drawn at random from those tested, without regard to their results. A dash means the value is not listed here; it may have been measured.

Compound | Mtb heat-shock | LdMetRS | Mtb growth Cornell
COc1ccccc1-c1ncc(CN2C[C@@H](N(C)C)[C@H](C(C)C)C2)s1 | 26.4 | 18.39 | 21.93
COc1ccc(CN(Cc2cnc(N)nc2)CC2CCCO2)c(OC)c1 (stereo not drawn) | - | 18.23 | -
CCCNc1cc(C(=O)N2CCOCC2)nc(C)n1 | -7.702 | -12.66 | -2.476
CC(C)c1nc(N2CCC(N3CCSCC3)CC2)c2cnn(C)c2n1 | -6.323 | 12.27 | 33.48
CC(C)N1CCC(NC(=O)c2cn(-c3ccc(F)cc3)nn2)C1 (stereo not drawn) | -43.45 | 12.57 | -5.944
O=C(N1CCCO1)[C@@]12CCO[C@@H]1CCN(Cc1cccnc1)C2 | - | 15.07 | -
Cc1cc(-c2cnc(N3CCNC(=O)C3)nc2-c2ccncc2)on1 | -7.026 | -3.236 | -24.32
O=C(O)C(F)(F)F.O=C(O)C(F)(F)F.c1nc2n(c1CN1CCCCC1)CCN(C1CCOC1)CC2 (stereo not drawn) | -8.182 | - | 17.48
Cc1noc(C)c1CN1CC[C@H]2OCC[C@@]2(C(=O)N2CCOCC2)C1 | - | 2.667 | -
COc1cc(CN2CCCCCC2c2cccs2)cc(OC)c1OC (stereo not drawn) | 13.35 | 9.014 | 35.69
Cn1cnc(S(=O)(=O)N2CC3(CCN(c4ccccc4)C3)C2)c1.O=C(O)C(F)(F)F | 8.493 | - | -10.44
Cn1c(CCC(=O)N2CCCC3(CNC(=O)O3)C2)nc2cccnc21 (stereo not drawn) | -10.57 | 14.2 | 6.213
CCN(C)C[C@@H]1CN(C(=O)NC2CCCCC2)C[C@@H]1CO | -3.98 | 12.3 | -23.51
Fc1cnc(N2CCC3(CC2)CN(Cc2cccs2)CCO3)nc1.O=C(O)C(F)(F)F.O=C(O)C(F)(F)F | -9.574 | - | 17.2
CNc1cc(C2CCCN2C(=O)c2ccc(=O)[nH]n2)ccn1.O=CO (stereo not drawn) | -19.64 | - | 2.671
c1ccc(CO[C@H]2CN(c3ncccn3)C[C@@]23CCCO3)cc1 | -2.993 | 11.64 | 45.6
CCc1nsc(NC2CC(=O)N(C(C)(C)C)C2)n1 (stereo not drawn) | 14.69 | 5.208 | 22.1
O=C(NC1CC1)N1CCOCC2(C1)CN(c1ccccc1)C(=O)CO2 (stereo not drawn) | -29.42 | 11.78 | 23.24
Cc1ccc(SCCCNC(=O)c2cn([C@H]3CC[C@@H](N)CC3)nn2)cc1 | 24.24 | 15.33 | 2.209
c1cncc(-c2ccc3c(c2)CCC32CCNCC2)c1 | 88.51 | 4.762 | 16.08
Cc1nsc(C(=O)NCCc2ccccc2)n1 | 20.36 | 4.802 | 3.827
OC(CNCCn1cccn1)COc1cccc(C(F)(F)F)c1 (stereo not drawn) | 16.29 | 14.49 | -18.38
Cc1ccc(C)c(-n2cc(CN3CCOCC3)c(-c3ccccc3)n2)c1 | 9.683 | 12.03 | -
CN1CCOCC2(CCCN(C(=O)c3ccc(-n4cccc4)cc3)C2)C1.O=C(O)C(F)(F)F (stereo not drawn) | -38 | - | -47.28
Cc1cccc(CC(=O)N2CCN(c3nccn3C)CC2)c1.Cl | -13.18 | - | -
O=C(c1ccccc1N1CCOCC1)N1CCCC(n2cccn2)C1 (stereo not drawn) | 7.03 | 10.46 | 13.24
CCCn1ncc(C(=O)N2CCC(N3CCCCC3)CC2)c1C | 11.18 | 12.33 | 13.44
[H][C@@]12C[C@H](c3nnc(C)o3)CN(S(=O)(=O)N(C)C)[C@]1([H])CCO2 | 8.469 | - | 33.44
Cc1noc(C)c1CNC[C@@]1(COc2cccnc2)C[C@@H](O)[C@@H](O)C1 | - | 9.153 | -
O=C(NCc1csc(Br)c1)c1cnccn1 | 8.27 | 17.49 | -
N[C@@H](C(=O)N1CCN(c2ccccc2Cl)C(=O)C1)c1ccccc1 | 7.95 | 19.22 | 19.13
NC(=O)C1CCN(Cc2cccc(NC(=O)c3ccsc3)c2)CC1 | -5.158 | 14.63 | 17.67
O=C(NC1CC1)[C@H]1COC[C@H]2CN(c3ncc(F)cn3)C[C@H]21 | - | 13.04 | -
Cc1cnn(C2CN(CC(O)c3ccccc3)C2)c1 (stereo not drawn) | -1.01 | 13.49 | 28.6
[H][C@@]12CCN(C(=O)Cc3ccccn3)C[C@]1([H])[C@H](c1nnc(C)o1)CCO2 | -0.7539 | - | 0.8182
CNC(=O)CCc1cc(C2CCNCC2)nc(C)n1 | - | 14.12 | -
CCS(=O)(=O)Nc1ccc2c(c1)OCC(C)(C)C(=O)N2C | 0.8725 | 7.887 | -9.044
N#Cc1ccc(Nc2nc3c(s2)C(=O)CN(CC2CC2)C3)cc1 | -5.055 | 8.01 | -22.87
COc1ccccc1C(=O)N1CC(=O)N(C2CCCCC2)CC(O)C1 (stereo not drawn) | 4.541 | 3.562 | -17.58
CN(C)Cc1cc(=O)n2c(n1)CN(C(=O)c1ccc[nH]1)CCC2.O=C(O)C(F)(F)F | 42.74 | - | -35.4
COc1ccc(-c2cc3nc([C@H](C)NC(=O)C4CC4)nn3cn2)cc1 | -6.199 | 14.79 | 3.145
Cc1ccc(C(N)=O)c(N2C[C@H]3OC(=O)N(C4CCCC4)[C@H]3C2)n1 | - | 11.53 | -
O=C(COC1CCCC1)N1CCCN(c2ncccn2)CC1 | -8.428 | 2.514 | -14.09
CCOC(=O)c1ccccc1NC(=O)CN(C)Cc1ccccc1Cl.O=C(O)C(=O)O | 18.95 | - | 17.21

Some entries from above, unchanged:

Compound	Mtb heat-shock	LdMetRS	Mtb growth Cornell
O=C(O)C(F)(F)F.O=C(O)C(F)(F)F.c1nc2n(c1CN1CCCCC1)CCN(C1CCOC1)CC2 (stereo not drawn)	-8.182	-	17.48
Cc1noc(C)c1CN1CC[C@H]2OCC[C@@]2(C(=O)N2CCOCC2)C1	-	2.667	-
CC(C)c1nc(N2CCC(N3CCSCC3)CC2)c2cnn(C)c2n1	-6.323	12.27	33.48